PubChem BioAssay AID652272 | Drosophila RNAi Screening Center – 2013
Screen: 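Genes whose knock-down decreases or increases Hedgehog reporter output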 (primary screen). Cell system: Drosophila clone 8 (Cl8) cells. Knock-down reagent: long dsRNA against Drosophila genes. Measurement: 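Firefly light from a Hedgehog-responsive ptc promoter reporter and Renilla reference light, both read on a plate reader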. Scale: firefly Hh reporter signal: higher = more ptc reporter light; Renilla reference signal: higher = more Renilla control light. Rule for the call: 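Hit when the z-score averaged over two replicates is under -2 or over +3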. Meaning of the calls: active = hit: reporter lowered or raised; inactive = not a hit.
The screen tested about 21,000 reagents; below is an unselected part of those that have a named target and a result. Over the whole deposit, 503 (2.4%) got an active call. 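Raw plate light values, not normalised; calls rest on replicate z-scores that were not deposited; hits include reporter decreases as well as increases.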 Unmarked entries are inactive. A plus sign joins genes that one reagent is predicted to hit. The record does not give: the amount of reagent, the time to read-out.

| gene | DRSC id | firefly Hh reporter signal, replicate 1 | firefly Hh reporter signal, replicate 2 | firefly Hh reporter signal, replicate 3 | Renilla reference signal, replicate 1 | Renilla reference signal, replicate 2 |
| --- | --- | --- | --- | --- | --- | --- |
| CG15617 | DRSC06570 | 88305 | 52485 | – | 2619 | 3392 |
| CG5402 | DRSC15792 | 66496 | 92493 | – | 1908 | 2722 |
| Cyp313a3 | DRSC16626 | 1.02e5 | 1.71e5 | – | 2872 | 4327 |
| dUTPase | DRSC01998 | 1.76e5 | 1.41e5 | – | 7912 | 6360 |
| fzr | DRSC18781 | 68343 | 1.53e5 | – | 1706 | 5961 |
| Exo84 | DRSC15965 | 4.49e5 | 77061 | – | 23682 | 2640 |
| CG3862 | DRSC00631 | 1.42e5 | 1.40e5 | – | 5364 | 6059 |
| CG11696 | DRSC19417 | 1.12e5 | 77857 | – | 2745 | 2012 |
| CG9777 | DRSC20208 | 98469 | 2.13e5 | – | 3708 | 9089 |
| mRpS22 | DRSC14488 | 61737 | 94776 | – | 1289 | 2810 |
| CG10352 | DRSC19353 | 62641 | 2.42e5 | – | 1735 | 8657 |
| CG42337 | DRSC11686 | 80266 | 98613 | – | 2711 | 2834 |
| CG42337 | DRSC11687 | 25430 (active) | 23972 | – | 1104 | 1081 |
| CG9782 | DRSC19145 | 6.19e5 | 2.37e5 | – | 36210 | 5426 |
| CG9782 | DRSC20209 | 1.22e5 | 2.95e5 | – | 4523 | 11201 |
| ND-SGDH | DRSC11102 | 33829 | 48077 | 71579 | 4640 | 4950 |
| snRNA:U4atac | DRSC12055 | 2.01e5 | – | – | 4501 | – |
| sro | DRSC14469 | 71795 | 4.30e5 | 1.01e5 | 2192 | 2920 |
| Fit1 | DRSC08450 | 92218 | 46009 | – | 4072 | 2333 |
| CG18268 + CG3014 | DRSC15319 | 86162 | 97538 | – | 3637 | 2890 |
| CG5386 | DRSC15788 | 3.73e5 | 1.97e5 | – | 16568 | 4939 |
| CG6712 | DRSC02981 | 1.41e5 | 91889 | – | 6972 | 4688 |
| CG33232 (retired record) | DRSC08187 | 80048 | 78342 | – | 3880 | 3462 |
| CG33232 (retired record) | DRSC08495 | 1.13e5 | 41179 | – | 2417 | 3080 |
| caz | DRSC20317 | 1.36e5 | 7.81e5 | 1.28e5 | 2813 | 4427 |
| CG7692 | DRSC10902 | 1.14e5 | – | – | 1988 | 3704 |
| CG7173 | DRSC11812 | 24640 | 46621 | – | 1813 | 2026 |
| CG14074 | DRSC10079 | 99526 | – | – | 2444 | 2083 |
| GIIIspla2 | DRSC18094 | 1.07e5 | 74505 | – | 2428 | 1912 |
| CG42676 | DRSC08227 | 87653 | 66185 | – | 4793 | 3299 |
| CG42676 | DRSC08392 | 60268 | 40800 | – | 2272 | 3126 |
| CG17364 | DRSC10269 | 54450 | 43206 | 52487 | 4669 | 1065 |
| CG17364 | DRSC10270 | 77430 | 71204 | 7.85e5 | 7772 | 5860 |
| CG13031 | DRSC09911 | 1.46e5 | – | – | 1692 | 6576 |
| ldd | DRSC20558 | 82208 | 1.77e5 | – | 2833 | 8509 |
| CG5376 | DRSC15782 | 7.81e5 | 1.62e5 | – | 39285 | 363 |
| CG42241 (retired record) | DRSC04007 | 1.52e5 | 2.72e5 | – | 3931 | 12004 |
| CG31259 | DRSC14366 | 64151 | 81207 | – | 2325 | 2427 |
| 5-HT1B | DRSC05031 | 1.51e5 | 42773 | – | 4295 | 470 |
| 5-HT1B | DRSC05769 | 12858 (active) | 22082 | – | 731 | 1369 |
| CG14346 | DRSC00376 | 1.15e5 | 74136 | – | 2711 | 2240 |
| CG15084 | DRSC06515 | 1.68e5 | 7.54e5 | 1.20e5 | 6781 | 43398 |
| gudu | DRSC02820 | 1.45e5 | 76033 | – | 3667 | 7522 |
| scpr-B | DRSC15200 | 1.32e5 | 1.19e5 | – | 5365 | 4439 |
| Awh | DRSC08140 | 93697 | 61444 | – | 3308 | 3936 |
| Pp1-Y1 | DRSC20896 | 5.21e5 | 3.47e5 | – | 23937 | 6721 |
| CG18480 | DRSC01957 | 89192 | 75270 | – | 3732 | 3172 |
| CG15715 | DRSC10216 | 1.30e5 | – | – | 3788 | 3697 |
| CG5026 | DRSC10470 | 96160 | 1.19e5 | – | 4289 | 4611 |
| Teh2 | DRSC08458 | 1.04e5 | 56888 | – | 2644 | 4547 |
| PVRAP | DRSC09966 | 26224 | 44181 | – | 2736 | 3013 |
| PVRAP | DRSC10577 | 40416 | 52269 | – | 3835 | 3017 |
| CG15553 | DRSC15091 | 1.03e5 | 1.42e5 | – | 3626 | 3888 |
| Tlk | DRSC17281 | 4.29e5 | 2.82e5 | – | 21037 | 5362 |
| Tlk | DRSC17731 | 56810 | 1.59e5 | – | 1636 | 5366 |
| Tlk | DRSC17835 | 38045 | 39354 | – | 865 | 2267 |
| mRpL39 | DRSC10255 | 93200 | – | – | 1316 | 2352 |

Entries above whose target name starts with F or f (2):
| gene | DRSC id | firefly Hh reporter signal, replicate 1 | firefly Hh reporter signal, replicate 2 | firefly Hh reporter signal, replicate 3 | Renilla reference signal, replicate 1 | Renilla reference signal, replicate 2 |
| --- | --- | --- | --- | --- | --- | --- |
| fzr | DRSC18781 | 68343 | 1.53e5 | – | 1706 | 5961 |
| Fit1 | DRSC08450 | 92218 | 46009 | – | 4072 | 2333 |
